Test results reported in patent publication US6962792B1, “Methods and means for inhibition of Cdk4 activity” (Cyclacel Limited, priority 1996, dated 2005).
These are yes or no findings as the source states them, for the method shown. Some binding calls cover weakened binding; strength is not graded here.

The chains behind the UniProt entries cited, without tags or fusion partners.
UniProt P11802: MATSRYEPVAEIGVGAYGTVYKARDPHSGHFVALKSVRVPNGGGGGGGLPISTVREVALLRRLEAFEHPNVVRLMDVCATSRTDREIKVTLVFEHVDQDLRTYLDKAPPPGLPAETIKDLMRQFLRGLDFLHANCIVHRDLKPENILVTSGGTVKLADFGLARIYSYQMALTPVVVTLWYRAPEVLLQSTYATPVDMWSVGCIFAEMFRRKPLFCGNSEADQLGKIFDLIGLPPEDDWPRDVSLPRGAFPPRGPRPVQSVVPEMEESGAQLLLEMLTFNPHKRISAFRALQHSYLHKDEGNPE
UniProt P24385: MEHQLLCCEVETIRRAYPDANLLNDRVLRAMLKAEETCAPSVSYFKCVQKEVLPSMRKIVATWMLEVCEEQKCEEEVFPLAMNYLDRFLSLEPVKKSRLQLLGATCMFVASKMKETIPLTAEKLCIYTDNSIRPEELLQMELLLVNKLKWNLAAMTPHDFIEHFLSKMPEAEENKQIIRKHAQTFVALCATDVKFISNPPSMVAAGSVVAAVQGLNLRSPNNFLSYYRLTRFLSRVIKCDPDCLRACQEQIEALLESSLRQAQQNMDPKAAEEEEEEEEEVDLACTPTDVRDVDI

Assays:
[1] = biological target: Cdk4 labelled with [35S]methionine, translated in rabbit reticulocyte lysate (human) (UniProt P11802); assay: peptide precipitation assay
[2] = biological target: Cdk4 labelled with [35S]methionine, translated in rabbit reticulocyte lysate (human) (UniProt P11802); assay: peptide precipitation of 35S-Cdk4 from reticulocyte lysate
[3] = biological target: cyclin D1 labelled with [35S]methionine, translated in rabbit reticulocyte lysate (human) (UniProt P24385); assay: peptide precipitation assay (data not shown)
[4] = biological target: Cdk4 labelled with [35S]methionine, translated in rabbit reticulocyte lysate (human) (UniProt P11802); assay: peptide precipitation assay (data not shown)
[5] = biological target: cyclin D1 labelled with [35S]methionine, translated in rabbit reticulocyte lysate (human) (UniProt P24385); assay: peptide precipitation assay
[6] = biological target: cyclin D1 labelled with [35S]methionine, translated in rabbit reticulocyte lysate (human) (UniProt P24385); assay: peptide precipitation of 35S-cyclin D1 from reticulocyte lysate

binding [1] | binding [2] | binding [3] | binding [4] | binding [5] | binding [6] | Binder
binds | binds |  |  |  |  | RERWNFDFVTETPLEGDFAWSGSG (Biotin-SGSG spacer at the C-terminus; free N-terminus) [peptide 4 (residues 46-65 of p21^WAF1)]
 |  | binds | binds |  |  | KRRQTSMTDFYHSKRRLAFSSGSG (Biotin-SGSG spacer at the C-terminus; free N-terminus) [peptide 10 mutant with I of the motif RRLIF changed to A]
binds | binds |  |  | binds | binds | TSMTDFYHSKRRLIFSKRKPSGSG (Biotin-SGSG spacer at the C-terminus; free N-terminus) [peptide 11 (extreme C-terminal peptide of p21^WAF1)]
 |  |  |  | binds | binds | KACRRLFGPVDSEQLSRDCDSGSG (Biotin-SGSG spacer at the C-terminus; free N-terminus) [peptide 2 (residues 16-35 of p21^WAF1)]
 |  | binds | binds |  |  | KRRQTSMTDFYHSKARLIFSSGSG (Biotin-SGSG spacer at the C-terminus; free N-terminus) [peptide 10 mutant with R-A at residue 15 of peptide 10 (residue 155 of the full length protein)]
 |  | binds | binds |  |  | KRRQTSMTDFYHSKRALIFSSGSG (Biotin-SGSG spacer at the C-terminus; free N-terminus) [peptide 10 mutant with the second R of the motif RRLIF changed to A]
